At least one read-out could not be matched to a standard name with certainty.
Test: Blood brain barrier PAMPA assay
Settings: donor and acceptor both pH 7.4
Method: PAMPA is used as an in vitro model of passive, transcellular permeability. An artificial membrane immobilized on a filter is placed between a donor and acceptor compartment. At the start of the test, drug is introduced in the donor compartment (at various pH). Following the permeation period, the concentrations of compound in the donor compartment and acceptor compartment are measured using UV spectroscopy.

Structure (SMILES): Clc1ccc(CSc2nnc(-c3ccccn3)n2Cc2ccco2)cc1Cl [Compound 2{8}]
- blood brain barrier PAMPA permeability: 242 ×10⁻⁶ cm/s

From patent US9345703B2, “Kappa opioid receptor effectors and uses thereof” (University of Kansas, priority 2011, dated 2016)
